Results from US8962845B2, “Pyrazole compounds” (National Health Research Institutes, priority 2011, dated 2015).
Some entries share one result that the patent states for a list of compounds.

The chains behind the UniProt entries cited, without tags or fusion partners.
UniProt P21554, whole entry: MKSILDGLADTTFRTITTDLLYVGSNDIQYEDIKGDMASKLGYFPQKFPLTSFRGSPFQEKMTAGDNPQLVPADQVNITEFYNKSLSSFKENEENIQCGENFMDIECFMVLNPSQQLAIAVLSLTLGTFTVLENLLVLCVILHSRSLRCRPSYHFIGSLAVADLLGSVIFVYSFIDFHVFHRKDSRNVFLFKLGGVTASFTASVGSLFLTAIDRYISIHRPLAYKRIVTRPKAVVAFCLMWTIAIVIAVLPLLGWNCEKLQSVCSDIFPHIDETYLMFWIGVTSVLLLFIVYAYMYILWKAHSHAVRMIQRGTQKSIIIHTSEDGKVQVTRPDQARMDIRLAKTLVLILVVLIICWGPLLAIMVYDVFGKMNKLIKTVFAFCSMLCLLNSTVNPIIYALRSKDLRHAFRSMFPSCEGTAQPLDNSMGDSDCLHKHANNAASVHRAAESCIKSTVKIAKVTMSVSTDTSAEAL

Target: T1, Human CB1 receptor (Homo sapiens, UniProt P21554)
T1 construct: expressed in transfected cells
Assay: DELFIA GTP-binding assay
Format: biochemical
Details: 20 nM CP55,940; HEK293 membranes; units given in the value; read-out: EC50 for inhibiting Eu-GTP binding (CP55,940-stimulated CB1 receptor activation)

## 1-(2,4-dichlorophenyl)-4-((3-fluoro-3-methylazetidine-1-sulfonamido)methyl)-N-(piperidin-1-yl)-5-(5-((4-(trifluoromethyl)phenyl)ethynyl)thiophen-2-yl)-1H-pyrazole-3-carboxamide [Compound 146]
  EC50: 0.001 to 10 µM
